# The list shows a part of the results.
# B1: MXA PilAct-eGFP (Myxococcus xanthus), Q59589 (protein)
# chain: MRVSRFNPRNRGFTLIELMIVVAIIGILAAIAIPNFIKFQARSKQSEAKTNLKALYTAQKSFFSEKDRYSDFANEIGFAPERGNRYGYRVSAAAGDCEVRNAADLPVPAAGVPCISNDSFRFGANSAIDDPTPVVARFVPQGAAGWNTTLGVQPTIADCPNCNFFAGARGNADNEATFDDWVIAGFEGSGQVGPCSEAGNVASGTPYNTRNDVACDGAAQ
# Columns and labels:
# Test in all cases: glycan array binding signal (z-score within array); higher = stronger binding
# Conditions in all cases: glycan notation: IUPAC condensed, linker removed
# [1] = target: Neu5Ac(a2-6)Gal(b1-4)GlcNAc(b1-6)[Gal(b1-3)]GalNAc
# Summary of the method: (§1)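 From the Consortium for Functional Glycomics database, 3228 arrays were curated, keeping only those whose protein sequence was available. Binding is given as a within-array Z-score averaged across arrays sharing a protein sequence and across linkers. Negative Z-scores can be read as non-binding.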
# [2] = target: Neu5Ac(a2-6)Gal(b1-4)GlcNAc6S
# Summary of the method: as §1
# Neu5Ac(a2-6)GalNAc = target: Neu5Ac(a2-6)GalNAc
# Summary of the method: as §1
# [3] = target: Neu5Ac(a2-6)GalNAc(b1-4)GlcNAc
# Summary of the method: as §1
# [4] = target: Neu5Ac(a2-6)GalNAc(b1-4)GlcNAc6S
# Summary of the method: as §1
# [5] = target: Neu5Ac(a2-6)GlcNAc(b1-4)GlcNAc
# Summary of the method: as §1
# [6] = target: Neu5Ac(a2-6)GlcNAc(b1-4)GlcNAc(b1-4)GlcNAc
# Summary of the method: as §1
# Neu5Ac(a2-8)Neu5Ac = target: Neu5Ac(a2-8)Neu5Ac
# Summary of the method: as §1
# [7] = target: Neu5Ac(a2-8)Neu5Ac(a2-3)Gal(b1-3)GalNAc(b1-4)[Neu5Ac(a2-3)]Gal(b1-4)Glc
# Summary of the method: as §1
# [8] = target: Neu5Ac(a2-8)Neu5Ac(a2-3)Gal(b1-3)GalNAc(b1-4)[Neu5Ac(a2-8)Neu5Ac(a2-3)]Gal(b1-4)Glc
# Summary of the method: as §1
# [9] = target: Neu5Ac(a2-8)Neu5Ac(a2-3)Gal(b1-4)Glc
# Summary of the method: as §1
# [10] = target: Neu5Ac(a2-8)Neu5Ac(a2-3)Gal(b1-4)GlcNAc
# Summary of the method: as §1
# [11] = target: Neu5Ac(a2-8)Neu5Ac(a2-3)[Gal(b1-3)GalNAc(b1-4)]Gal(b1-4)Glc
# Summary of the method: as §1
# [12] = target: Neu5Ac(a2-8)Neu5Ac(a2-3)[GalNAc(b1-4)]Gal(b1-4)Glc
# Summary of the method: as §1
# [13] = target: Neu5Ac(a2-8)Neu5Ac(a2-8)Neu5Ac
# Summary of the method: as §1
# [14] = target: Neu5Ac(a2-8)Neu5Ac(a2-8)Neu5Ac(a2-3)Gal(b1-4)Glc
# Summary of the method: as §1
# [15] = target: Neu5Ac(a2-8)Neu5Ac(a2-8)Neu5Ac(a2-3)[Gal(b1-3)GalNAc(b1-4)]Gal(b1-4)Glc
# Summary of the method: as §1
# [16] = target: Neu5Ac(a2-8)Neu5Ac(a2-8)Neu5Ac(a2-3)[GalNAc(b1-4)]Gal(b1-4)Glc
# Summary of the method: as §1
# [17] = target: Neu5Ac(a2-8)Neu5Ac(a2-8)Neu5Ac(a2-8)Neu5Ac(a2-3)[GalNAc(b1-4)]Gal(b1-4)Glc
# Summary of the method: as §1
# [18] = target: Neu5Ac(a2-8)Neu5Gc(a2-3)Gal(b1-4)GlcNAc
# Summary of the method: as §1
# [19] = target: Neu5Ac(b2-6)Gal(b1-4)GlcNAc
# Summary of the method: as §1
# Neu5Ac(b2-6)GalNAc = target: Neu5Ac(b2-6)GalNAc
# Summary of the method: as §1
# [20] = target: Neu5Ac9Ac(a2-3)Gal(b1-3)GlcNAc
# Summary of the method: as §1
# [21] = target: Neu5Ac9Ac(a2-3)Gal(b1-4)GlcNAc
# Summary of the method: as §1
# [22] = target: Neu5Ac9Ac(a2-6)Gal(b1-4)GlcNAc
# Summary of the method: as §1
# [23] = target: Neu5Gc(a2-3)Gal(b1-3)GlcNAc
# Summary of the method: as §1
# [24] = target: Neu5Gc(a2-3)Gal(b1-3)[Fuc(a1-4)]GlcNAc
# Summary of the method: as §1
# Neu5Gc(a2-3)Gal(b1-4)Glc = target: Neu5Gc(a2-3)Gal(b1-4)Glc
# Summary of the method: as §1
# [25] = target: Neu5Gc(a2-3)Gal(b1-4)GlcNAc
# Summary of the method: as §1
# [26] = target: Neu5Gc(a2-3)Gal(b1-4)GlcNAc(b1-3)Gal(b1-4)GlcNAc(b1-2)Man(a1-3)[Neu5Gc(a2-3)Gal(b1-4)GlcNAc(b1-3)Gal(b1-4)GlcNAc(b1-2)Man(a1-6)]Man(b1-4)GlcNAc(b1-4)GlcNAc
# Summary of the method: as §1
# [27] = target: Neu5Gc(a2-3)Gal(b1-4)[Fuc(a1-3)]GlcNAc
# Summary of the method: as §1
# [28] = target: Neu5Gc(a2-6)Gal(b1-4)GlcNAc
# Summary of the method: as §1
# Neu5Gc(a2-6)GalNAc = target: Neu5Gc(a2-6)GalNAc
# Summary of the method: as §1
# [29] = target: Neu5Gc(a2-8)Neu5Ac(a2-3)Gal(b1-4)GlcNAc
# Summary of the method: as §1
# [30] = target: Neu5Gc(a2-8)Neu5Gc(a2-3)Gal(b1-4)GlcNAc
# Summary of the method: as §1
# [31] = target: Neu5Gc(a2-8)Neu5Gc(a2-3)Gal(b1-4)GlcNAc(b1-3)Gal(b1-4)GlcNAc
# Summary of the method: as §1
# [32] = target: Neu5Gc(a2-8)Neu5Gc(a2-6)Gal(b1-4)GlcNAc
# Summary of the method: as §1
# [33] = target: Neu5Gc(b2-6)Gal(b1-4)GlcNAc
# Summary of the method: as §1
binder,measurement,setting,value
B1,glycan array binding signal (z-score),[1],-0.019
same,glycan array binding signal (z-score),[2],-0.252
same,glycan array binding signal (z-score),Neu5Ac(a2-6)GalNAc,-0.682
same,glycan array binding signal (z-score),[3],-0.136
same,glycan array binding signal (z-score),[4],0.083
same,glycan array binding signal (z-score),[5],-0.184
same,glycan array binding signal (z-score),[6],-0.645
same,glycan array binding signal (z-score),Neu5Ac(a2-8)Neu5Ac,-0.109
same,glycan array binding signal (z-score),[7],-0.408
same,glycan array binding signal (z-score),[8],-0.32
same,glycan array binding signal (z-score),[9],-0.831
same,glycan array binding signal (z-score),[10],0.947
same,glycan array binding signal (z-score),[11],0.314
same,glycan array binding signal (z-score),[12],3.6
same,glycan array binding signal (z-score),[13],-0.469
same,glycan array binding signal (z-score),[14],-0.589
same,glycan array binding signal (z-score),[15],-1.16
same,glycan array binding signal (z-score),[16],0.792
same,glycan array binding signal (z-score),[17],1.8
same,glycan array binding signal (z-score),[18],1.33
same,glycan array binding signal (z-score),[19],0.106
same,glycan array binding signal (z-score),Neu5Ac(b2-6)GalNAc,0.611
same,glycan array binding signal (z-score),[20],4.29
same,glycan array binding signal (z-score),[21],-0.852
same,glycan array binding signal (z-score),[22],-0.668
same,glycan array binding signal (z-score),[23],0.057
same,glycan array binding signal (z-score),[24],0.021
same,glycan array binding signal (z-score),Neu5Gc(a2-3)Gal(b1-4)Glc,-0.589
same,glycan array binding signal (z-score),[25],0.407
same,glycan array binding signal (z-score),[26],0.6
same,glycan array binding signal (z-score),[27],-0.274
same,glycan array binding signal (z-score),[28],0.306
same,glycan array binding signal (z-score),Neu5Gc(a2-6)GalNAc,-0.802
same,glycan array binding signal (z-score),[29],-0.085
same,glycan array binding signal (z-score),[30],-0.272
same,glycan array binding signal (z-score),[31],0.474
same,glycan array binding signal (z-score),[32],0.272
same,glycan array binding signal (z-score),[33],0.287

# Random excerpt: 2 records from the list.
binder,measurement,setting,value
B1,glycan array binding signal (z-score),Neu5Gc(a2-6)GalNAc,-0.802
same,glycan array binding signal (z-score),[11],0.314
